From publication PMC3738515, “HLA-DO as the Optimizer of Epitope Selection for MHC Class II Antigen Presentation” (PLoS ONE, 2013)
No constants are given. Whether binding was seen depends on the method and setting.

Legend:
[1] = target: recombinant soluble HLA-DO (human); assay: fluorescent peptide binding control (Sephadex G-50 spin column, fluorescence); fluorescent peptide incubated with accessory molecules (DM, DO or DM/DO) in the absence of DR1 for over 10 hours at 37°C, citrate-phosphate pH 5.0; both purified
soluble HLA-DM (human) = assay: as above

B1: CII(259–273) peptide (peptide)
peptide: CAGFKGEQGPKGEP
modifications: fluorescein on the N-terminus
binding [1]: no binding (tested: 30 µM peptide, 4 µM DO)
binding (soluble HLA-DM (human)): no binding (tested: 30 µM peptide, 1 µM DM)
